Experimental data as given in patent US20120164161A1 (AFFITECH RESEARCH, published 2012).
These are yes or no findings as the source states them, for the method shown. Some results given as binding are weak or reduced against the parent protein; the word gives no strength. Where a sequence is shown, tags or fusion partners need not be part of it.

Molecular target: T1, human CC chemokine receptor 4 (CCR4) (human, UniProt P51679 1-360)
T1 sequence (looked up): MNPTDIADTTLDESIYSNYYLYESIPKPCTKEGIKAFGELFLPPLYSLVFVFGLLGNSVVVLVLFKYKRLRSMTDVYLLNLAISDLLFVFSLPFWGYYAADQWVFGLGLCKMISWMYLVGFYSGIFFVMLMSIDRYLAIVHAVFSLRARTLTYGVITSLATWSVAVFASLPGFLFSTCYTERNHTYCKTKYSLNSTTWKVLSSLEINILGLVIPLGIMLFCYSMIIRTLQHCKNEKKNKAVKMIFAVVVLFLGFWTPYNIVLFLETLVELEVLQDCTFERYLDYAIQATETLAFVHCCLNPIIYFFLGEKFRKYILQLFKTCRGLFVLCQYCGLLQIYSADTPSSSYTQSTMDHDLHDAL
Assay: chemotactic assay on CCRF-CEM cells

- binding: binds
B1: Alexa647-labelled MDC-SNAP fusion protein (ligand, UniProt O00626 25-93, looked up, not shown: large carriers)
chain: GPYGANMEDSVCCRDYVRYRLPLRVVKHFYWTSDSCPRPGVVLLTFRDKEICADPRVPWVKMILNKLSQ
modifications: labeled with Alexa647
